Measured values as given in the supplement of paper PMC9233669.
This sample is rich in variants without activity.

Columns and labels:
[1] = test system: biotinyl-Ile-oxazolone; assay: self-aminoacylation, catalytic enhancement (BIO) (fold over background); higher = more active; k-Seq, kA / k0A0; sequences stand for … in GGGAAUGGAUCCACAUCUACGAAUUC…UUCACUGCAGACUUGACGAAGCUG
Summary of the method: (§1)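 Mutagenized RNA pools (0.43 μM; 21-nt variable region) were treated with 2–1250 μM of each biotinyl-aminoacyl-oxazolone. Conditions were 50 μL HEPES/NaCl/KCl/MgCl2/CaCl2 buffer, 5% acetonitrile, pH 6.9–7.0, room temperature, 90 minutes. Catalytic enhancement, the median kA relative to the uncatalyzed rate, was derived from streptavidin capture, qPCR and Illumina sequencing.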

[2] = test system: biotinyl-Leu-oxazolone; assay: self-aminoacylation, catalytic enhancement (BLO) (fold over background); higher = more active; k-Seq, kA / k0A0; sequences stand for … in GGGAAUGGAUCCACAUCUACGAAUUC…UUCACUGCAGACUUGACGAAGCUG
Summary of the method: as §1

[3] = test system: biotinyl-Met-oxazolone; assay: self-aminoacylation, catalytic enhancement (BMO) (fold over background); higher = more active; k-Seq, kA / k0A0; sequences stand for … in GGGAAUGGAUCCACAUCUACGAAUUC…UUCACUGCAGACUUGACGAAGCUG
Summary of the method: as §1

[4] = test system: biotinyl-Trp-oxazolone; assay: self-aminoacylation, catalytic enhancement (BWO) (fold over background); higher = more active; k-Seq, kA / k0A0; sequences stand for … in GGGAAUGGAUCCACAUCUACGAAUUC…UUCACUGCAGACUUGACGAAGCUG
Summary of the method: as §1

[5] = test system: biotinyl-Val-oxazolone; assay: self-aminoacylation, catalytic enhancement (BVO) (fold over background); higher = more active; k-Seq, kA / k0A0; sequences stand for … in GGGAAUGGAUCCACAUCUACGAAUUC…UUCACUGCAGACUUGACGAAGCUG
Summary of the method: as §1

[6] = test system: biotinyl-Phe-oxazolone; assay: self-aminoacylation, catalytic enhancement (BFO) (fold over background); higher = more active; k-Seq, kA / k0A0; sequences stand for … in GGGAAUGGAUCCACAUCUACGAAUUC…UUCACUGCAGACUUGACGAAGCUG
Summary of the method: as §1

Row | Sequence | self-aminoacylation [1] | self-aminoacylation [2] | self-aminoacylation [3] | self-aminoacylation [4] | self-aminoacylation [5] | self-aminoacylation [6]
1 | AUUUCCCUGGUUAUCGAGUGA [Fam2.1 aminoacylation ribozyme variant] | 4.12 | 8.65 | 9.01 | 10.9 | 4.39 | 58.2
2 | CCACACUUAAAGCAAUCGGAC [Fam1B.1 aminoacylation ribozyme variant] | 0.878 | 0.625 | 0.763 | 0.847 | 0.915 | 0.601
3 | CUAUUUCAAACGAUCGGUCUG [Fam1A.1 aminoacylation ribozyme variant] | 0.787 | 0.788 | 0.884 | 1.03 | 0.708 | 0.608
4 | CUACUUCAAACAAACCGUCUG [Fam1A.1 aminoacylation ribozyme variant] | 0.94 | 0.63 | 0.825 | 0.899 | 0.786 | 0.619
5 | AUUACCCUCGUCAUCGAGGGA [Fam2.1 aminoacylation ribozyme variant] | 1.34 | 1.64 | 1.37 | 1.22 | 1.14 | 1.45
6 | AAGUUUGCAAAUAAUCGCAAG [Fam3.1 aminoacylation ribozyme variant] | 0.778 | 0.686 | 0.739 | 0.429 | 0.655 | 0.61
7 | CCACACUUUAAGCAAUCAGUC [Fam1B.1 aminoacylation ribozyme variant] | 0.76 | 0.69 | 0.541 | 0.749 | 0.874 | 1.03
8 | AUUACCCCGGUCAUCGACUGA [Fam2.1 aminoacylation ribozyme variant] | 1.01 | 0.802 | 0.625 | 0.385 | 1.11 | 0.534
9 | GCACACUUCAAGCAAUCAGUC [Fam1B.1 aminoacylation ribozyme variant] | 1.51 | 1.44 | 1.47 | 4.94 | 1.4 | 9.69
10 | CUACUUCAAACAGUCAGUCUG [Fam1A.1 aminoacylation ribozyme variant] | 0.701 | 0.658 | 0.571 | 0.564 | 0.711 | 0.561
11 | ACUCACCUACGUCAUCGGGUG [Fam2.2 aminoacylation ribozyme variant] | 3.98 | 7.79 | 6.25 | 6.64 | 4.69 | 57.3
12 | CUACUUCAAACAAUCGAACUG [Fam1A.1 aminoacylation ribozyme variant] | 0.683 | 0.595 | 0.617 | 0.468 | 0.595 | 0.805
13 | AUUAUCCUGGUCAUCGAUUGA [Fam2.1 aminoacylation ribozyme variant] | 0.867 | 1.06 | 0.968 | 0.883 | 0.882 | 0.706
14 | AAGUUUGCCAAUCGUCGCAAG [Fam3.1 aminoacylation ribozyme variant] | 1.36 | 1.26 | 1.7 | 1.12 | 1.29 | 0.9
15 | GUACUUCAAACAACCGGUCUG [Fam1A.1 aminoacylation ribozyme variant] | 1.67 | 1.23 | 1.21 | 2.02 | 1.54 | 4.78
16 | CUACUUCCAAUAAUCGGUCUG [Fam1A.1 aminoacylation ribozyme variant] | 0.755 | 0.926 | 0.849 | 0.937 | 0.98 | 1.32
17 | AUUACCUUGGUCGUCGAGUGA [Fam2.1 aminoacylation ribozyme variant] | 1.03 | 0.851 | 1.09 | 0.907 | 1.02 | 1.55
18 | CGACACUUUAAGCAAUCGGUC [Fam1B.1 aminoacylation ribozyme variant] | 1.07 | 0.779 | 0.74 | 0.727 | 1.06 | 0.833
19 | CCACACUUCCAGCACUCGGUC [Fam1B.1 aminoacylation ribozyme variant] | 1.57 | 1.13 | 1.26 | 1.62 | 1.56 | 0.914
20 | AAUUUUGCUAAUAGUCACAAG [Fam3.1 aminoacylation ribozyme variant] | 1.6 | 1.31 | 1.48 | 1.94 | 1.56 | 3.77
21 | CCACACGUCAAGCAAUCGGAC [Fam1B.1 aminoacylation ribozyme variant] | 1.53 | 1.36 | 1.14 | 0.681 | 2.03 | 0.667
22 | CCACUUCAAACAAUCGAUCUG [Fam1A.1 aminoacylation ribozyme variant] | 0.781 | 0.642 | 0.464 | 1.7 | 0.714 | 4.61
23 | AAGUUGGCUAAUAGUCGCACG [Fam3.1 aminoacylation ribozyme variant] | 1.35 | 1.81 | 1.61 | 2.11 | 1.63 | 2.62
24 | AAGUUUGCUAAUAGCCGUAAG [Fam3.1 aminoacylation ribozyme variant] | 1.3 | 0.898 | 1.39 | 7.16 | 1.36 | 18.2
25 | AUUCACCUAUGUCAACGGGUG [Fam2.2 aminoacylation ribozyme variant] | 1.83 | 3.35 | 2.83 | 2.52 | 2.01 | 16.8
26 | GUUUACCUAGGUCAUCGGGUG [Fam2.2 aminoacylation ribozyme variant] | 16.2 | 39.7 | 29 | 23.9 | 14.1 | 201

Row | Sequence | self-aminoacylation [1] | self-aminoacylation [2] | self-aminoacylation [3] | self-aminoacylation [4] | self-aminoacylation [5] | self-aminoacylation [6]
27 | CCACACUUCAAGCAAUCAGCC [Fam1B.1 aminoacylation ribozyme variant] | 1.04 | 1.51 | 0.884 | 2.26 | 1.72 | 3.01
28 | AUUUCCCUGGUCAUCGACUGA [Fam2.1 aminoacylation ribozyme variant] | 1.09 | 0.989 | 0.966 | 0.625 | 1.1 | 0.739
29 | CCACACUUUAAGCUAUCGGUC [Fam1B.1 aminoacylation ribozyme variant] | 1.04 | 0.81 | 0.726 | 0.767 | 0.959 | 0.784
30 | CUACUUAAUACAAUCGGUCUG [Fam1A.1 aminoacylation ribozyme variant] | 0.782 | 0.761 | 0.89 | 0.631 | 0.849 | 0.835
31 | CUACUUCAAACAAUCGGGAUG [Fam1A.1 aminoacylation ribozyme variant] | 0.904 | 1.19 | 0.844 | 4.46 | 1.02 | 5.85
32 | AUACUUCGAACAAUCGGUCUG [Fam1A.1 aminoacylation ribozyme variant] | 1.29 | 1.16 | 1.34 | 1.4 | 1.17 | 1.74
33 | AUUCAUCUAGGUCAUCGGGGG [Fam2.2 aminoacylation ribozyme variant] | 1.82 | 2.31 | 2.13 | 2.14 | 1.9 | 5.32
34 | CGCCACUUCAAGCAAUCGGUC [Fam1B.1 aminoacylation ribozyme variant] | 1.53 | 2.26 | 1.39 | 24.2 | 1.69 | 37.1
35 | AAGUUUGCUACUAGUGGCAAG [Fam3.1 aminoacylation ribozyme variant] | 0.62 | 0.636 | 0.855 | 0.597 | 0.599 | 1.2
36 | AAGUUUGGUAAUAGUCUCAAG [Fam3.1 aminoacylation ribozyme variant] | 1.22 | 0.944 | 1.16 | 1.65 | 1.07 | 1.5
37 | AUUCACCUAGGUCAUAGGGCG [Fam2.2 aminoacylation ribozyme variant] | 0.973 | 0.873 | 0.959 | 0.746 | 1.14 | 0.969
38 | AAGUUUGGUAAUAAUCGCAAG [Fam3.1 aminoacylation ribozyme variant] | 1.08 | 0.859 | 0.918 | 1.03 | 1.03 | 1.27
39 | CUACUUCAAACACUCGGUCUG [Fam1A.1 aminoacylation ribozyme variant] | 0.906 | 0.829 | 0.828 | 0.787 | 0.969 | 0.87
40 | CAACUUCAAACAAUCGGUCUC [Fam1A.1 aminoacylation ribozyme variant] | 1.63 | 1.9 | 1.74 | 37.7 | 1.5 | 75.3
41 | AUUACCCUGGUCAUCGACUGG [Fam2.1 aminoacylation ribozyme variant] | 0.746 | 0.997 | 0.524 | 1.69 | 0.708 | 0.639
42 | AAGUUUGCUAAUACUCCCAAG [Fam3.1 aminoacylation ribozyme variant] | 0.449 | 0.317 | 0.444 | 0.294 | 0.484 | 0.694
43 | CCACACCUCAAGCAAUGGGUC [Fam1B.1 aminoacylation ribozyme variant] | 0.965 | 0.99 | 0.705 | 0.995 | 1.07 | 0.543
44 | CCACACUUAAAGCAAUCGGCC [Fam1B.1 aminoacylation ribozyme variant] | 1.72 | 2.15 | 1.71 | 1.7 | 1.97 | 7.34
45 | GUACCUCAAACAAUCGGUCUG [Fam1A.1 aminoacylation ribozyme variant] | 1.1 | 1.35 | 0.976 | 1.93 | 1.06 | 2.42
46 | CCACACUUCUUGCAAUCGGUC [Fam1B.1 aminoacylation ribozyme variant] | 0.783 | 0.72 | 0.76 | 0.654 | 0.765 | 0.7
47 | CCACUCUUCAAGCAAUCGGUA [Fam1B.1 aminoacylation ribozyme variant] | 1.2 | 1.14 | 1.23 | 1.47 | 1.33 | 0.73
48 | AAGUUUGCUAACGGUCGCAAG [Fam3.1 aminoacylation ribozyme variant] | 0.768 | 0.626 | 1.1 | 0.658 | 0.645 | 1.35
49 | AAGUUUGAUAAUAGUCGCUAG [Fam3.1 aminoacylation ribozyme variant] | 0.553 | 0.464 | 0.477 | 0.625 | 0.529 | 0.654
50 | CUACUUGAAACAAUCGGUCUC [Fam1A.1 aminoacylation ribozyme variant] | 0.789 | 0.657 | 0.827 | 0.561 | 0.688 | 0.658
51 | CCACACUUCAAGCAGUUGGUC [Fam1B.1 aminoacylation ribozyme variant] | 0.704 | 0.518 | 0.649 | 0.38 | 0.686 | 0.619
